{"source": "PubChem BioAssay AID652259 (Drosophila RNAi Screening Center, 2013)", "purpose": "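Knock-downs that push a Wingless-driven reporter up or down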 (primary screen)", "cells": "Drosophila clone 8 imaginal disc epithelial cells", "reagents": "long dsRNA against Drosophila genes", "treatment": "pathway stimulated by co-transfected Wingless expression plasmid", "measured": "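Firefly luciferase from a tcf-site Wingless reporter, measured alongside co-transfected Renilla luciferase that tracks transfection; pathway stimulated by a Wingless plasmid; the firefly-to-Renilla ratio is not deposited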", "reading the numbers": "firefly reporter light: higher = more Wg reporter light, before normalisation; Renilla control light: higher = more transfected or surviving cells", "call rule": "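a knock-down is a candidate when at least two out of four statistical tests show it departing from its plate mean; one test alone signals a weak candidate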", "meaning of the calls": "active = candidate regulator (raises or lowers reporter); inactive = not a candidate", "note": "The screen tested about 22,000 reagents; shown is a random part of those that have a named target and a result. In the full data, 233 (1.1%) got an active call. 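Light values are raw, unnormalised plate reads; the ratio scores behind the reporter calls were not deposited.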 Not given: the amount of reagent, the time to read-out, the dose of the treatment."}
{"gene": "Acp24A4 (Accessory gland protein 24A4)", "dsRNA": "DRSC22352", "firefly reporter light, replicate 1": 4.64e5, "firefly reporter light, replicate 2": 5.77e5, "Renilla control light, replicate 1": 1.66e5, "Renilla control light, replicate 2": 1.91e5, "Outcome": "inactive"}
{"gene": "Rpn1 (Regulatory particle non-ATPase 1)", "dsRNA": "DRSC11274", "firefly reporter light, replicate 1": 4629, "Renilla control light, replicate 1": 1049, "Outcome": "inactive"}
{"gene": "CG7724", "dsRNA": "DRSC10905", "firefly reporter light, replicate 1": 3932, "Renilla control light, replicate 1": 1736, "Outcome": "inactive"}
{"gene": "CG2021", "dsRNA": "DRSC08546", "firefly reporter light, replicate 1": 7575, "Renilla control light, replicate 1": 3728, "Outcome": "inactive"}
{"gene": "fkh (fork head)", "dsRNA": "DRSC16949", "firefly reporter light, replicate 1": 8773, "Renilla control light, replicate 1": 2931, "Outcome": "inactive"}
{"gene": "CG6236", "dsRNA": "DRSC15999", "firefly reporter light, replicate 1": 4313, "Renilla control light, replicate 1": 1696, "Outcome": "inactive"}
{"gene": "pdm3 (pou domain motif 3)", "dsRNA": "DRSC06076", "firefly reporter light, replicate 1": 4097, "firefly reporter light, replicate 2": 9801, "Renilla control light, replicate 1": 1010, "Renilla control light, replicate 2": 3648, "Outcome": "inactive"}
{"gene": "pdm3 (pou domain motif 3)", "dsRNA": "DRSC06490", "firefly reporter light, replicate 1": 3238, "firefly reporter light, replicate 2": 10328, "Renilla control light, replicate 1": 976, "Renilla control light, replicate 2": 3539, "Outcome": "inactive"}
{"gene": "pdm3 (pou domain motif 3)", "dsRNA": "DRSC22326", "firefly reporter light, replicate 1": 3.83e5, "firefly reporter light, replicate 2": 3.52e5, "Renilla control light, replicate 1": 67253, "Renilla control light, replicate 2": 70182, "Outcome": "inactive"}

4 neighbouring records from above, for reference:
{"gene": "CG2021", "dsRNA": "DRSC08546", "firefly reporter light, replicate 1": 7575, "Renilla control light, replicate 1": 3728, "Outcome": "inactive"}
{"gene": "fkh (fork head)", "dsRNA": "DRSC16949", "firefly reporter light, replicate 1": 8773, "Renilla control light, replicate 1": 2931, "Outcome": "inactive"}
{"gene": "CG6236", "dsRNA": "DRSC15999", "firefly reporter light, replicate 1": 4313, "Renilla control light, replicate 1": 1696, "Outcome": "inactive"}
{"gene": "pdm3 (pou domain motif 3)", "dsRNA": "DRSC06076", "firefly reporter light, replicate 1": 4097, "firefly reporter light, replicate 2": 9801, "Renilla control light, replicate 1": 1010, "Renilla control light, replicate 2": 3648, "Outcome": "inactive"}

Next records follow.
{"gene": "senju", "dsRNA": "DRSC02366", "firefly reporter light, replicate 1": 2867, "firefly reporter light, replicate 2": 8118, "Renilla control light, replicate 1": 1012, "Renilla control light, replicate 2": 3271, "Outcome": "inactive"}
{"gene": "Hil (Hillarin)", "dsRNA": "DRSC05989", "firefly reporter light, replicate 1": 19869, "Renilla control light, replicate 1": 5328, "Outcome": "inactive"}
{"gene": "Hil (Hillarin)", "dsRNA": "DRSC06395", "firefly reporter light, replicate 1": 4721, "Renilla control light, replicate 1": 2924, "Outcome": "inactive"}
{"gene": "Spase22-23 (Spase 22/23-subunit)", "dsRNA": "DRSC15857", "firefly reporter light, replicate 1": 14780, "Renilla control light, replicate 1": 13632, "Outcome": "inactive"}
{"gene": "CG8420", "dsRNA": "DRSC16418", "firefly reporter light, replicate 1": 12874, "Renilla control light, replicate 1": 3792, "Outcome": "inactive"}
{"gene": "GEFmeso (Guanine nucleotide exchange factor in mesoderm)", "dsRNA": "DRSC06748", "firefly reporter light, replicate 1": 12925, "Renilla control light, replicate 1": 3817, "Outcome": "inactive"}
{"gene": "GEFmeso (Guanine nucleotide exchange factor in mesoderm)", "dsRNA": "DRSC06940", "firefly reporter light, replicate 1": 5506, "Renilla control light, replicate 1": 2018, "Outcome": "inactive"}
{"gene": "GEFmeso (Guanine nucleotide exchange factor in mesoderm)", "dsRNA": "DRSC21475", "firefly reporter light, replicate 1": 3.85e5, "firefly reporter light, replicate 2": 4.42e5, "Renilla control light, replicate 1": 2.34e5, "Renilla control light, replicate 2": 1.61e5, "Outcome": "inactive"}
{"gene": "bdwf (bedwarfed)", "dsRNA": "DRSC15532", "firefly reporter light, replicate 1": 3268, "firefly reporter light, replicate 2": 7541, "Renilla control light, replicate 1": 1195, "Renilla control light, replicate 2": 2609, "Outcome": "inactive"}
{"gene": "Alp12 (Alkaline phosphatase 12)", "dsRNA": "DRSC02515", "firefly reporter light, replicate 1": 3104, "firefly reporter light, replicate 2": 10884, "Renilla control light, replicate 1": 1043, "Renilla control light, replicate 2": 3287, "Outcome": "inactive"}
{"gene": "beat-IIIb (beaten path IIIb)", "dsRNA": "DRSC02435", "firefly reporter light, replicate 1": 2674, "firefly reporter light, replicate 2": 7405, "Renilla control light, replicate 1": 1026, "Renilla control light, replicate 2": 4373, "Outcome": "inactive"}
{"gene": "CG4025", "dsRNA": "DRSC18523", "firefly reporter light, replicate 1": 19826, "Renilla control light, replicate 1": 10771, "Outcome": "inactive"}
{"gene": "bab2 (bric a brac 2)", "dsRNA": "DRSC08150", "firefly reporter light, replicate 1": 2980, "Renilla control light, replicate 1": 1557, "Outcome": "inactive"}
{"gene": "bab2 (bric a brac 2)", "dsRNA": "DRSC08380", "firefly reporter light, replicate 1": 3161, "Renilla control light, replicate 1": 822, "Outcome": "inactive"}
{"gene": "scyl (scylla)", "dsRNA": "DRSC11392", "firefly reporter light, replicate 1": 9097, "Renilla control light, replicate 1": 3506, "Outcome": "inactive"}
{"gene": "CG3630", "dsRNA": "DRSC18499", "firefly reporter light, replicate 1": 3280, "firefly reporter light, replicate 2": 4900, "Renilla control light, replicate 1": 1419, "Renilla control light, replicate 2": 2188, "Outcome": "inactive"}
